In patent publication US20190117751A1 (SAPPORO MEDICAL UNIVERSITY, published 2019) one finds binding data, which are given here for one molecule.

The target in the assay is HLA-A24 molecule on the cell surface (HLA-A*2402) (human). Put plainly: not clear: FIG. 8 has no binding assay panel.

No constants are given. Whether binding was seen depends on the method and setting. Binding can be weak; no strength is given.

With VYTYIQSRF [DYRK4-derived natural peptide of SEQ ID No: 5 (…)], the binding result is reported as “binds”.
